According to PMC8641240:
Results are given in words; binding and its absence hold for the method and conditions named. In cells and extracts the contact can be indirect. Some binding calls cover weakened binding; strength is not graded here. Where a sequence is shown, tags or fusion partners need not be part of it.

Protein sequences, listed by entry. Tags and fused reporters are not part of them.
UniProt Q8K3K8: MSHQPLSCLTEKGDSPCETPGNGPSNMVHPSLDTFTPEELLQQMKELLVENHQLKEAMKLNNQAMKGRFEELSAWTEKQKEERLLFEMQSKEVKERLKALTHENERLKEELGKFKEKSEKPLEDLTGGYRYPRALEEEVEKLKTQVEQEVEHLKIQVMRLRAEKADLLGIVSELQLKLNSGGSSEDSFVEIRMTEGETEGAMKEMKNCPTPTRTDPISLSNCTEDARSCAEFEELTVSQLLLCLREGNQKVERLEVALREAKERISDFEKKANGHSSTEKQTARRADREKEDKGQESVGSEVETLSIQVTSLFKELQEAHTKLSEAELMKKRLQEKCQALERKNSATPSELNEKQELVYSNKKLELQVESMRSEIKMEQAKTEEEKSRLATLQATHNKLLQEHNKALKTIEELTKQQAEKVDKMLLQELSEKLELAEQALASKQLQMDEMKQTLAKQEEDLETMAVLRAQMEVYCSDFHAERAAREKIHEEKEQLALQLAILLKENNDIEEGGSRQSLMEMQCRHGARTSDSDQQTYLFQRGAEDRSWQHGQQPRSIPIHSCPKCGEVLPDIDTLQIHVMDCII

Target: T1, Full-length Flag-RIPK1 (mouse) (UniProt Q60855)
T1 sequence: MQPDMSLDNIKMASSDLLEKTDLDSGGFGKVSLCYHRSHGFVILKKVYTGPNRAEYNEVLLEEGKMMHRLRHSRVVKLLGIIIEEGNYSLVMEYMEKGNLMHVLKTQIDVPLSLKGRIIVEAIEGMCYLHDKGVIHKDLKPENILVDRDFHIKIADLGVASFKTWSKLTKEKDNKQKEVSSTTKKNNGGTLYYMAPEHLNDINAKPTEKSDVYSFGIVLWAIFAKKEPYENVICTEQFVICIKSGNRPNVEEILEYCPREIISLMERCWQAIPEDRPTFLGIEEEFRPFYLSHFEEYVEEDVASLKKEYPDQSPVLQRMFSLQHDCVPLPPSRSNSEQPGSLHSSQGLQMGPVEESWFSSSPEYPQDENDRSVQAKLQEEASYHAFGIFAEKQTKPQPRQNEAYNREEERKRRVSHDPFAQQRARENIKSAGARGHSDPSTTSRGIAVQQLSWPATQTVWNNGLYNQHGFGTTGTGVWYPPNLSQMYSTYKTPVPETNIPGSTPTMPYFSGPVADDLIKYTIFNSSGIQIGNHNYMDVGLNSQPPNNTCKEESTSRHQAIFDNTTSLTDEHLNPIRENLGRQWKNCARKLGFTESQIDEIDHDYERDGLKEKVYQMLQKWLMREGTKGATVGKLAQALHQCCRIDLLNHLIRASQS
Experiment: co-IP; HEK293T cells cotransfected with HA-OPTN (or its truncation fragment) and Flag-RIPK1; lysate precipitated with anti-Flag antibody at 4 °C, captured on Dynabeads, blotted with anti-HA antibody

## Full-length HA-OPTN (from UniProt Q8K3K8 1-584)
  binding: binds
